From patent publication US20170306047A1, “PHARMACEUTICAL COMPOSITION FOR CANCER PREVENTION AND TREATMENT, CONTAINING NDRG3 EXPRESSION OR ACTIVITY INHIBITOR AS ACTIVE INGREDIENT, OR NDRG3 PROTEIN-SPECIFIC ANTIBODY AND USE THEREOF” (KOREA RESEARCH INSTITUTE OF BIOSCIENCE AND BIOTECHNOLOGY, priority 2014, published 2017)
Results are given in words; binding and its absence hold for the method and conditions named. For part of these data: In cells and extracts the contact can be indirect. Some binding calls cover weakened binding; strength is not graded here. Each block holds one substance with its values, some of them ahead of it.

By UniProt entry, the sequences of proteins in these tests, tags left out. Where a name states a change or a piece, a line headed by the entry shows the natural chain unless it says otherwise.
UniProt Q9GZT9: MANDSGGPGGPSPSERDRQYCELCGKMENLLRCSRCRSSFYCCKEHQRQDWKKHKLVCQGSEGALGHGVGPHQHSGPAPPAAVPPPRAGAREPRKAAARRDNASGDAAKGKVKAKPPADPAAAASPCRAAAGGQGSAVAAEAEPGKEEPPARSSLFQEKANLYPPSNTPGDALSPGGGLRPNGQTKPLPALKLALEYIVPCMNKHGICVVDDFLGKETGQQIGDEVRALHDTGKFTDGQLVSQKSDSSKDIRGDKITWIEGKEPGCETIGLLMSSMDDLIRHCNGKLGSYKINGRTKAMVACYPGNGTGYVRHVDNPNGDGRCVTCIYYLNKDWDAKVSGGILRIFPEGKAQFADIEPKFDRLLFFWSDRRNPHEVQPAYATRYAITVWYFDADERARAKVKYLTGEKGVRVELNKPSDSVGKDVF
UniProt Q9UGV2: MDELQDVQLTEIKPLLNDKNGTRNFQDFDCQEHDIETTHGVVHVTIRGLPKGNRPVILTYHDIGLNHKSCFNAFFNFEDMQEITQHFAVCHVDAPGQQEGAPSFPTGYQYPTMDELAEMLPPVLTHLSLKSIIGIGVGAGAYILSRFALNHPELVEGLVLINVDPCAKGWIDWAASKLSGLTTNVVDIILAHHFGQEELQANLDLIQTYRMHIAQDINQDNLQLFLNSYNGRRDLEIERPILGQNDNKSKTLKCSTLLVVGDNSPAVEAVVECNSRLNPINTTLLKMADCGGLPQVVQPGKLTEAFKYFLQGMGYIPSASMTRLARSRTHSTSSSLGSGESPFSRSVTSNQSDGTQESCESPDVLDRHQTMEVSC

What was measured:
Flag-tagged PHD2 [1] = molecular target: Flag-tagged PHD2 (UniProt Q9GZT9); assay: co-immunoprecipitation with anti-Myc gel from HEK293T cells, anti-Flag Western blot; filing ranks PHD2-binding affinities V296D>Q97E>R47D≈N66D
Flag-tagged PHD2 [2] = molecular target: Flag-tagged PHD2 (UniProt Q9GZT9); assay: co-immunoprecipitation with anti-Myc gel from HEK293T cells (normoxia, MG132), anti-Flag Western blot
[3] = molecular target: recombinant c-Raf-His protein (UniProt P04049); assay: His pull-down of c-Raf-His and NDRG3-GST on Ni-NTA agarose, anti-NDRG3 Western blot
[4] = molecular target: recombinant c-Raf-His protein (UniProt P04049); assay: His pull-down of recombinant proteins (FIG. 19D legend)
Flag-tagged c-Raf [5] = molecular target: Flag-tagged c-Raf (UniProt P04049); assay: anti-FLAG immunoprecipitation from HeLa cells (FIG. 19D legend)
Flag-tagged c-Raf [6] = molecular target: Flag-tagged c-Raf (UniProt P04049); assay: anti-FLAG immunoprecipitation from Flag-c-Raf-overexpressing HeLa cells (1% O2, 24 h), anti-NDRG3 Western blot
[7] = molecular target: recombinant GST-NDRG3 protein (human) (UniProt Q9UGV2); assay: in vitro Ni-NTA pull-down of recombinant proteins (FIG. 4A legend)
[8] = molecular target: recombinant GST-NDRG3 protein (human) (UniProt Q9UGV2); assay: in vitro pull-down: 10 µg His-PHD2 and 10 µg GST-NDRG3 on Ni-NTA agarose, anti-NDRG3 Western blot

Substance: Myc-tagged NDRG3 (Q97E) variant (from UniProt Q9UGV2 1-375)
binding (Flag-tagged PHD2 [1]): binds

Substance: Myc-tagged NDRG3 (from UniProt Q9UGV2 1-375)
binding (Flag-tagged PHD2 [2]): binds

Substance: N-myc downstream-regulated gene 3 (NDRG3) protein (from UniProt Q9UGV2 1-375)
binding (Flag-tagged c-Raf [5]): binds | binding (Flag-tagged c-Raf [6]): binds

The next lines start with the values.

binding (Flag-tagged PHD2 [1]): binds
Substance: Myc-tagged NDRG3 (V296D) variant (from UniProt Q9UGV2 1-375)

binding [3]: binds | binding [4]: binds
Substance: recombinant GST-NDRG3 protein (from UniProt Q9UGV2 1-375)

binding [7]: binds | binding [8]: binds
Substance: recombinant His-PHD2 protein (from UniProt Q9GZT9 1-426) (enzyme)
